Assay results taken from US6627769B2, “RGD-analog non-peptidic molecules having anti-adhesive, anti-migration and anti-proliferative effects” (Provincia Italiana Della Congregzaione dei Figli …, priority 2001, dated 2003).
Not every detail of the peptide structures is certain; ends, links or a residue may be inferred.

Columns and labels:
[1] = tested on: RASMC migration toward PDGF-BB; assay: Migration assay in modified Boyden chambers toward PDGF-BB; format: cell-based, rat; details: FIG. 2; PDGF-BB 10 ng/ml as chemoattractant
Procedure: Rat vascular smooth muscle cells (RASMC) were placed in the upper chamber of the Boyden apparatus. […] Cell migrated on the bottom face of the filters were counted at 400× magnification. Fifteen fields were counted for each filter and the average number of cells/field was calculated. Experiments were performed at least 4 times in duplicate.

[2] = tested on: RASMC adhesion to vitronectin; assay: Adhesion assay (RASMC adhesion to vitronectin); format: cell-based; details: FIG. 1; rat vascular smooth muscle cells, 1 hour at 37° C. on vitronectin
[3] = tested on: RASMC proliferation stimulated with PDGF-BB; assay: Proliferation assay (PDGF-BB stimulated RASMC, cell counting); details: FIG. 3; 100 ng/ml; stimulated for 48 hours with PDGF-BB (10 ng/ml)

N=C(N)NCCC[C@H](N)C(=O)NCC(=O)N[C@@H](CC(=O)O)C(=O)N[C@@H](CO)C(=O)O [RGDS]
inhibition of RASMC migration toward PDGF-BB gradient [1]: dose-dependent inhibition | inhibition of RASMC adhesion to vitronectin [2]: dose-dependent inhibition | anti-proliferative effect (inhibition of RASMC proliferation) [3]: marked anti-proliferative effect
